Source: PubChem BioAssay AID504786 (Drosophila RNAi Screening Center, 2011)
In all, the deposit lists about 21,000 reagents; below is an unselected part of those that have a named target and a result. 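Primary screen; positive scores mean lost reporter signal, so the sign may be inverted from the usual convention.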 Names joined by + are all predicted targets of the reagent. Not all columns of the deposit are shown.

- Aim: 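Positive regulators of HIF-driven reporter output in Drosophila cells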 (primary screen)
- Cells: Drosophila S2 cells with a stable HIF luciferase reporter
- Reagent: long dsRNA against Drosophila genes, about 0.2 µg dsRNA per well of a 384-well plate
- Timing: three days of knock-down, then 20 h of DFO before reading
- Conditions: desferrioxamine (DFO) at 100 µM, an iron chelator that mimics hypoxia, for 20 h
- Detection: 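HIF reporter luminescence in cells given 100 µM DFO for 20 h, using the mouse ldh-a hypoxia-response element, scored as per-plate z-scores; higher means greater loss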
- Reading the numbers: z-score: higher = stronger loss of HIF reporter signal

With Snap29 [DRSC04721], what was measured?
z-score, replicate 1: -0.4

What did the screen give for Best2 [DRSC09712]?
z-score, replicate 1: -0.3

What did the screen give for rhea [DRSC11300]?
z-score, replicate 1: -0.2

For jb [DRSC20531], how do the results read?
z-score, replicate 1: -0.5

Which result is listed for Pph13 [DRSC00775]?
z-score, replicate 1: -0.3

How did the screen score CG2147 [DRSC18211]?
z-score, replicate 1: -0.2

How did the screen score ND-51L2 [DRSC07080]?
z-score, replicate 1: -0.3

What did the screen give for Ir20a [DRSC20506]?
z-score, replicate 1: -0.5

What is on record for Hesr [DRSC19965]?
z-score, replicate 1: -0.2

With CG5973 [DRSC02918], what was measured?
z-score, replicate 1: -0.3

For VhaAC45 [DRSC07058], what was measured?
z-score, replicate 1: -0.3

What did the screen give for CG6770 [DRSC02992]?
z-score, replicate 1: -0.2

What did the screen give for drd [DRSC19343]?
z-score, replicate 1: -0.3

What did the screen give for Jon99Ci [DRSC16860]?
z-score, replicate 1: -0.1

How did the screen score Cyp12a4 [DRSC16620]?
z-score, replicate 1: -1.1

What did the screen give for Snmp2 [DRSC10228]?
z-score, replicate 1: -0.1

Which result is listed for Snmp2 [DRSC10843]?
z-score, replicate 1: -0.2

With Acox57D-p [DRSC04560], how do the results read?
z-score, replicate 1: -0.1

What is on record for dmrt99B [DRSC15045]?
z-score, replicate 1: 2.3

What is on record for otk2 [DRSC07303]?
z-score, replicate 1: -0.3

What did the screen give for Ufsp1 [DRSC04958]?
z-score, replicate 1: 0.3

With CG13659 [DRSC14660], how do the results read?
z-score, replicate 1: -0.3

How did the screen score CG8128 [DRSC20084]?
z-score, replicate 1: -0.2

What did the screen give for Roc1b + Cdc5 [DRSC08687]?
z-score, replicate 1: -0.2

For fl(2)d [DRSC07620], what does the deposit list?
z-score, replicate 1: -0.2

What did the screen give for und [DRSC03629]?
z-score, replicate 1: -0.1

For Slob [DRSC02296], how do the results read?
z-score, replicate 1: -0.1

With CG10947 [DRSC02111], how do the results read?
z-score, replicate 1: -0.2

How did the screen score Trf4-2 [DRSC15237]?
z-score, replicate 1: -0.1

How did the screen score CG4362 [DRSC15567]?
z-score, replicate 1: -0.2

How did the screen score CG14763 [DRSC06497]?
z-score, replicate 1: -0.3

With CG33093 [DRSC15775], how do the results read?
z-score, replicate 1: -0.1

What is on record for Sans [DRSC06357]?
z-score, replicate 1: 0.2

With MICAL-like [DRSC09829], what does the deposit list?
z-score, replicate 1: -0.4

With Nop56 [DRSC14699], what was measured?
z-score, replicate 1: 0.7

For fipi [DRSC00465], what does the deposit list?
z-score, replicate 1: 2.2

What is on record for CG15385 [DRSC00399]?
z-score, replicate 1: -0.1

For CG10799 [DRSC06002], what does the deposit list?
z-score, replicate 1: 0

With Gpdh1 [DRSC03336], how do the results read?
z-score, replicate 1: -0.4

What is on record for Fur1 [DRSC13707]?
z-score, replicate 1: 3.2

For Fur1 [DRSC16676], what does the deposit list?
z-score, replicate 1: 1.8

Reformatted: results already given
Roc1b + Cdc5 [DRSC08687]
- z-score, replicate 1: -0.2

fl(2)d [DRSC07620]
- z-score, replicate 1: -0.2

und [DRSC03629]
- z-score, replicate 1: -0.1

Slob [DRSC02296]
- z-score, replicate 1: -0.1

CG10947 [DRSC02111]
- z-score, replicate 1: -0.2

Trf4-2 [DRSC15237]
- z-score, replicate 1: -0.1
